The values below come from patent publication US20250145718A1.

Protein sequences, listed by entry. Tags and fused reporters are not part of them. Lines headed by an entry give the natural chain unless they say otherwise; changes in a name come on top.
UniProt Q07011: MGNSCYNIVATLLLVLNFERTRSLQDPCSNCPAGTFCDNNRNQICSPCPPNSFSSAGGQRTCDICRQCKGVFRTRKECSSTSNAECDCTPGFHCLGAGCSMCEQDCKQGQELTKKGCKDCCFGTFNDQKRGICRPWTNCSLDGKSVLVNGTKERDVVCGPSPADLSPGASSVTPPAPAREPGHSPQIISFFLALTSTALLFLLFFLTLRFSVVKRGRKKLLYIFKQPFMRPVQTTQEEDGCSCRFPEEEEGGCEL
UniProt Q9NZQ7: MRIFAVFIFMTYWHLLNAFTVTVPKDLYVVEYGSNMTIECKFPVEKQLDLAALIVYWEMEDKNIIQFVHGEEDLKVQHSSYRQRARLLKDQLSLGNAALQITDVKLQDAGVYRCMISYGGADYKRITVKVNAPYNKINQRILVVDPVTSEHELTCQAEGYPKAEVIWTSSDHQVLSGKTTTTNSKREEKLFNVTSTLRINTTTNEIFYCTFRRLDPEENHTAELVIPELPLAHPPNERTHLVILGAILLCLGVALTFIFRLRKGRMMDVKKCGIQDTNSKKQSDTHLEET

Where a chain is given by its changes, count along the chain named. These are yes or no findings as the source states them, for the method shown. Some binding calls cover weakened binding; strength is not graded here.

Assay [1] concerns the target 4-1BB (Octet Red 96 kinetics, Example 2.2(3)) (human) (UniProt Q07011). As to the kind of experiment: BLI (Octet Red 96).
The target of assay [2] is PD-L1 (Biacore kinetics, Example 1.5) (UniProt Q9NZQ7). In words: SPR (Biacore). For orientation: In SPR one partner is held on a chip, and binding of the other changes the refractive index at the surface.

B1: 41B01 (anti-4-1BB monoclonal antibody) (antibody, V domains shown)
VH: EVQLLESGGGLVQPGGSLRLSCAASGFTFSSYDMSWVRQAPGKGLEWVSWISYSGGSIYYADSVKGRFTISRDNSKNTLYLQMNSLRAEDTAVYYCARDGQRNSMREFDYWGQGTLVTVSS
VL: QSVLTQPPSASGTPGRRVTISCSGSSSNIGNNYVTWYQQLPGTAPKLLIYADSHRPSGVPDRFSGSKSGTSASLAISGLRSEDEADYYCATWDYSLSGYVFGGGTKLTVL
For B1, the binding entry in assay [1] is given as “binds”.

B2: 41B02 (anti-4-1BB monoclonal antibody) (antibody, V domains shown)
VH: EVQLLESGGGLVQPGGSLRLSCAASGFTFSGYDMSWVRQAPGKGLEWVSVIYPDDGNTYYADSVKGRFTISRDNSKNTLYLQMNSLRAEDAAVYYCAKHGGQKPTTKSSSAYGMDGWGQGTLVTVSS
VL: B1 VL
For the molecule B2, in assay [1], the binding result is listed as “binds”.

B3: H12 (Hu1210-41; Hu1210 VH.4d x Hu1210 VK.1) (antibody, V domains shown)
VH: EVQLVESGGGLVQPGGSLRLSCAASGFTFSSYDMSWVRQAPGKSLEWVATISDAGGYIYYSDSVKGRFTISRDNAKNSLYLQMNSLRDEDTAVYICAREFGKRYALDYWGQGTTVTVSS
VL: DIQMTQSPSSLSASVGDRVTITCKASQDVTPAVAWYQQKPGKAPKLLIYSTSSRYTGVPSRFSGSGSGTDFTFTISSLQPEDIATYYCQQHYTTPLTFGQGTKLEIK
Regarding B3, the binding result in assay [2] is listed as “binds”.

B4: B6 (anti-PD-L1 clone derived from Hu1210-41) (antibody, V domains shown)
VH: B3 VH with S61R, F100L, G101P, K102W
VL: B3 VL
For B4, the binding result in assay [2] is recorded as “binds”.
